In paper PMC12633904:

B1: UBA2 domain of A. thaliana RAD23C (aa 353-419) (domain or fragment, UniProt Q84L31 353-419)
chain: GNLLGQMAAGMPQPQAIQVTHEEREAIERLEAMGFERALVLEVFFACNKNEELAANYLLDHMHEFEE
B2: A. thaliana RAD23C (proteasomal shuttle protein) (protein, UniProt Q84L31 1-419)
chain: MKIFVKTLKGTHFEIEVKPEDSVVDVKKNIESVQGADVYPAAKQMLIHQGKVLKDETTIEENKVAENSFIVIMMNKSKPASAAASSASAGTSQAKSIPPSTSQPSISPQTPASVSAPVAPAPTRPPPPAPTPTPAPVAATETVTTPIPEPVPATISSSTPAPDSAPVGSQGDVYGQAASNLAAGSNLESTIQQILDMGGGTWDRETVVLALRAAFNNPERAVEYLYTGIPEQAEVPPVARPPASAGQPANPPAQTQQPAAAPASGPNANPLDLFPQGLPNVGGNPGAGTLDFLRNSQQFQALRAMVQANPQVLQPMLQELGKQNPNLMRLIQDHQADFLRLINEPVEGGGESGNLLGQMAAGMPQPQAIQVTHEEREAIERLEAMGFERALVLEVFFACNKNEELAANYLLDHMHEFEE
B3: A. thaliana RAD23D (protein, UniProt Q84L30 1-378)
chain: MKIFVKTLSGSNFEIEVKPADKVSDVKTAIETVKGAEYPAAKQMLIHQGKVLKDETTLEENNVVENSFIVIMLSKTKASPSGASTASAPAPSATQPQTVATPQVSAPTASVPVPTSGTATAAAPATAASVQTDVYGQAASNLVAGTTLESTVQQILDMGGGSWDRDTVVRALRAAFNNPERAVEYLYSGIPAQAEIPPVAQAPATGEQAANPLAQPQQAAAPAAATGGPNANPLNLFPQGMPAADAGAGAGNLDFLRNSQQFQALRAMVQANPQILQPMLQELGKQNPQLVRLIQEHQADFLRLINEPVEGEENVMEQLEAAMPQAVTVTPEEREAIERLEGMGFDRAMVLEVFFACNKNEELAANYLLDHMHEFEDQ
B4: A. thaliana RAD23B (protein, UniProt Q84L33 1-371)
chain: MKLTVKTLKGSHFEIRVLPSDTIMAVKKNIEDSQGKDNYPCGQQLLIHNGKVLKDETSLVENKVTEEGFLVVMLSKSKSGGSAGQASVQTSSVSQPVSATTSSTKPAAPSTTQSSPVPASPIPAQEQPAAQTDTYGQAASTLVSGSSLEQMVQQIMEMGGGSWDKETVTRALRAAYNNPERAVDYLYSGIPQTAEVAVPVPEAQIAGSGAAPVAPASGGPNSSPLDLFPQETVAAAGSGDLGTLEFLRNNDQFQQLRTMVHSNPQILQPMLQELGKQNPQLLRLIQENQAEFLQLVNEPYEGSDGEGDMFDQPEQEMPHAINVTPAEQEAIQRLEAMGFDRALVIEAFLACDRNEELAANYLLENSGDFED
B5: A. thaliana RAD23A (protein, UniProt Q84L32 1-368)
chain: MKLTVKTLKGSHFEIRVLPTDTIMAVKKNIEDSQSKDNYPCGQQLLIHNGKVLKDETTLVENKVTEEGFLVVMLSKSKTASSAGPSSTQPTSTTTSTISSTTLAAPSTTQSIAVPASNSTPVQEQPTAQSDTYGQAASTLVSGSSIEQMVQQIMEMGGGSWDKETVTRALRAAYNNPERAVDYLYSGIPETVTIPATNLSGVGSGRELTAPPPSGGPNSSPLDLFPQEAVSDAAGGDLGTLEFLRGNDQFQQLRSMVNSNPQILQPMLQELGKQNPQLLRLIQENQAEFLQLLNEPYEGSDGDVDIFDQPDQEMPHSVNVTPEEQESIERLEAMGFDRAIVIEAFLSCDRNEELAANYLLEHSADFED

Each binder was assayed against SAP54^AY-WB (secreted AY-WB protein 54), mature peptide (Aster Yellows strain Witches' Broom (AY-WB) phytoplasma (Ca. Phytoplasma asteris)) (assay: two-hybrid; ProQuest Two-Hybrid system, yeast strain MaV203; SAP54 peptides fused to the GAL4 BD (pDEST32), MADS-box TFs and RAD23 proteins or domains fused to the GAL4 AD (pDEST22); growth on SD agar lacking Trp, Leu and His with 20, 25, 60 or 75 mM 3-AT, or lacking Trp, Leu, His and Adenine with 10 mM 3-AT; four independent colonies).

Question: For B1, which binding is on record?
Answer: binds

Question: With B2 as the binder, how does the binding read?
Answer: binds

Question: Which binding does the source give for B3 here?
Answer: binds

Question: B4 was tested. Which binding did it give?
Answer: no binding

Question: Which binding does the source give for B5 here?
Answer: no binding

These are yes or no findings as the source states them, for the method shown. A result given as binding can be weak or reduced; the word gives no strength.
